From PubChem BioAssay AID1508600 (Functional Genomics Laboratory (NCATS/FGL), 2020)
Out of some 53,000 sequences screened, about 3,700 (7%) were called active.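 The calls were made as follows: active = gene knockdowns whose robust z-score for IL-1 alpha signal is at least 2 or at most -2, so actives lie on both sides; inactive = the rest.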 This is one part of the list.

Assay: Components of the Cytosolic LPS Sensing Pathway: Gene Identification via Genome-wide siRNA Screen;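 also: robust z of the log signal after scaling to non-targeting control siRNA wells of the plate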
Details: RAW264.7 macrophages, IL-1a HTRF, actives lie on both sides, screened at 100 nM (by protocol), cells primed 5 h with Pam3CSK4 first
Summary of the method: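 Cells (RAW264.7, 1×10^4 per well) were transfected with siRNA at 100 nM and cultured 48h at 37 degrees C. Pam3CSK4 was added for 5 hours; LipidA transfection followed for 24 hour. IL-1a was then measured by HTRF.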

Sequence	z-score
GCUUUCGGUGGAUUCCUUATT against Rars2	inactive: -0.714
GGACUACAGAUGCAUACCATT against 9830163H01Rik	inactive: -0.234
GGCAUGUUUGAGUUUCAGATT against Lsm4	inactive: -0.22
GGCAAUGAGAAAGUUACUCTT against Olfr1102	inactive: 1.65
GGAUCUGAAAGACUAUUUCTT against Tardbp	inactive: -0.956
GGGACACCUUCCGUAACUATT against Gcdh	inactive: -0.832
GCUCACACUUUAAAGAGGGTT against Supv3l1	inactive: 0.524
GGAUAUGGCCCAGUUCAUATT against Gfer	inactive: -1.16
CCAGUCCUUGAAAAGAGCUTT against Olfr128	active: -2.35
GGAAAUUGGCACCAUUACUTT against St3gal1	active: 2.14
CCAAUCGUAAUGACAAUUCTT against Myo1d	inactive: -0.857
GGAAAGGAUACGAGACAAUTT against Kctd2	inactive: 1.35
GACAGUGAUCACUUGUGGUTT against Ly6g6d	inactive: -0.369
GCUUUGAUUCAUAAACAAGTT against Rmi1	inactive: -0.585
GGUGGUGAAACUCAAGAUCTT against Zfp771	inactive: -0.983
GGUACAACUGUAAAUAUUCTT against Npc1	inactive: 0.0905
GCUAAGAAACUGGUCUCAUTT against Reg4	inactive: -0.151
GGAUUUGUUUUCAGAUGUGTT against Zfp329	inactive: -1.56
GGAAGAUUCCUUAACCAAGTT against Setmar	inactive: 0.214
GCCUAUCAUCGAGUGUGUATT against Gphb5	inactive: 0.471
GGUAUCUGCAUGUCUUAAUTT against Snx14	inactive: 0.338
CCGAUAUGUGAAAAUUAAGTT against Rpl32	inactive: 0.673

Sequence	z-score
GGAAUAUACGAAUCACAGATT against Tmprss12	inactive: -1.11
GGAAUUGAAAUGUCAGAAGTT against Pex2	inactive: -0.989
GCUUGUUUACAUCGGACUUTT against Samt2	inactive: 0.9
GUGCUAUGUGAAGAGCAGCTT against Klri1	inactive: 0.419
GGAAAACGUGAUUUACACATT against Fcrl5	inactive: 0.236
GCAAAAUGGGAUUUGUCAUTT against Grm1	inactive: -0.448
GGCUGAGAUCUAGCUUACATT against H3c15	active: -3.21
CCAAGUCCAGCCUUUUGGUTT against Acsm1	inactive: 0.295
GGUUACCUCAUUUGACGGATT against BC048671	inactive: -0.731
GGAUGAAAGAGUUUCUGCATT against Spin1	inactive: -0.945
GGCUUUAACUAAUUAUGGATT against Pcm1	inactive: -0.649
GGCGCAGUAAAGAGGAGAUTT against Ccnb3	inactive: 1.4
GGAAGUCGGGCAAAUACAATT against Tacstd2	active: 5.77
GGUCAAACUGAAGAAGGAGTT against Slc7a7	inactive: -1.24
GCUGCUGAGGUACUUGCUATT against Pcsk1n	inactive: -0.98
GGAUACUGUAAGGAAUAAUTT against Orc4	inactive: -1.23
CCAUUGAUCUCGUCUCCCATT against Impdh1	inactive: -0.647
CGAGUUAAGUAACAGGACATT against Mmgt2	inactive: 1.44
GCUUUUCUUCUUCAUCUCUTT against Olfr1336	inactive: 0.698
GAGUCAAAACAGCAGUGCATT against Cpsf4	inactive: -0.27
GGGAGAGGAUCAGGUAAACTT against Chp1	inactive: -0.49
UAAAAAUGAGCCGGGCAAUTT against Ms4a5	inactive: 1.42

Sequence	z-score
GGAGUUUCUGGAUGGUGGUTT against Prxl2b	inactive: -0.168
GGACUUCAAGUGGCUGAAGTT against St3gal3	inactive: 1.09
GGUCCUUUACAUGAACCGCTT against Vps18	inactive: -0.661
GGCAAACCUGCUUUCAUGGTT against Smc5	inactive: 0.282
GGUCAUGUACAAGAAAACCTT against Wfikkn2	inactive: -0.633
GGACCAAAACACUACCAAUTT against Tinag	inactive: 0.648
GGCCUUCAGCACUUGUGUGTT against Olfr585	inactive: -1.33
GGAUAUCACAUUUGUUGCUTT against Anapc4	inactive: 0.888
GGUCACGAUGUAGCACGCUTT against Mtg1	inactive: 0.996
GGUAAAGAUCUGGAGACGATT against Pgam1	inactive: -0.727
GGCAAAUCUGAACAACAUUTT against Agt	inactive: 1.16
GGCUUUGAACACCAGUGAATT against Rpp21	inactive: -0.453
GGAAUGUCUCUCUGAAAUATT against Greb1	inactive: 0.957
GGUAUUUCACUGGAAGACUTT against Trdmt1	inactive: 0.0369
GCAGCUUGCUUGAUUCAAGTT against Iqcb1	inactive: 0.424
CGUUUUGUAUAUAUCUGACTT against Kdm6a	inactive: -1.17
GUUUGGCCGAGUUCAUUUCTT against Pigu	inactive: 0.759
CCAUCUCAUUCCUUACCAGTT against Gm4736	inactive: -1.79
GGCGUACAGGCAAAAAGCATT against Dnajc17	inactive: -0.4
GGAACAGACAGAGAACACATT against Tgm6	active: 2.54
GGAGCACCUUCAGAAAGUUTT against Commd5	inactive: -0.604
GGUUACAUCAUCUUAACACTT against Pif1	inactive: -0.368

Taken from above:
Value for CCAUUGAUCUCGUCUCCCATT against Impdh1 under z-score: inactive: -0.647
Value for GCUGCUGAGGUACUUGCUATT against Pcsk1n under z-score: inactive: -0.98
Value for CCGAUAUGUGAAAAUUAAGTT against Rpl32 under z-score: inactive: 0.673
Value for GGAACAGACAGAGAACACATT against Tgm6 under z-score: active: 2.54

Going on with the list:

Sequence	z-score
GGCAAAAACGCGAUGAAGATT against Sync	inactive: -0.556
CGCGGGAUGAAGGAUAUAATT against Gm11541	inactive: 0.114
GGAUUAUUCCCUUUCUUCCTT against Sh3pxd2a	inactive: 0.807
GGCCAUCAGGUGCAAACUATT against Enc1	inactive: -0.315
CCUACUCGUCUCUUUCACCTT against Tlcd1	inactive: 0.158
GCCAGGGUAACUCUCUAGATT against 9130008F23Rik	inactive: -0.715
GGACCUCCGCAUACGAAGATT against Slc12a5	inactive: -0.216
GGUCAAAAUAGUGUCCACCTT against Olfr628	inactive: 1.43
GGCGUGUCUGUAAAAUCUUTT against Exo5	inactive: 0.656
GGCUCUGCACAACCUUCUATT against 4932435O22Rik	inactive: -0.048
CCUGUGCCUCGCGUCUUAATT against Gdf3	inactive: 0.0375
GGUUGUAACAAACAUACUCTT against Sstr4	active: 2.99
GGAAAAGGGUCGUGCCUGUTT against Gm9991	inactive: -0.07
GGUCAUUCCCAAAAGCAAGTT against Erp29	inactive: -0.151
GGACAUUGCAUUGCUCAUGTT against Sec1	inactive: -0.526
GGAGUUUGCCGGAAGACUCTT against Ntf3	inactive: 1.08
GCCGCUUAAGAGGGAUUAUTT against Mrpl15	inactive: -0.394
GCUUUUACACUAAUCUAGCTT against Senp8	inactive: 0.281
GGAAAAAUGUGGACUUCUUTT against Bhmt2	inactive: 0.511
GGUCCUAUUCCUACCAUUCTT against Zfp677	inactive: -0.86
GUGAAGAAAUGUUUGACACTT against Raet1b	inactive: 0.254
GGAGGUCCCUCAUUUCAAGTT against Grik4	inactive: -0.0486

Sequence	z-score
GCCUUCAAGACCACAUCCATT against Chst5	inactive: 1.32
CGACCUCGUCUACAUCUCCTT against Lingo1	inactive: 1.49
CCCGAGCCUCAAGAUUUACTT against Ccdc134	inactive: 0.392
GGCAUCUAUUUCUGUGUCUTT against Rdh5	inactive: -1.27
GGAUCCAUAAUGUGCAAAATT against Musk	inactive: -0.7
GCACAUAGAAACGUGUUGGTT against Fnbp1	inactive: -0.213
GGACCACCAAGAGGAAGUGTT against Cd300lf	inactive: -1.03
GGUGGAUAUUCCAUCUAUUTT against Snx14	active: 2.76
CGAUAUCAAGAGUGCAUGATT against Gas6	active: 2.97
GCCUAAGCGAAAGUCUCUCTT against Rassf8	inactive: 0.95
GGUCGAUGCAAAGAUGCUGTT against Smoc1	inactive: 0.811
GGACACCAUAUGGUUAGCUTT against Tedc1	active: -2.25
GGAGAUGUUGCCAAAAACUTT against Sprr2d	inactive: -1.31
GGAUAUUUUGGACUCCUUATT against Ephx4	inactive: 0.387
GGGAAAUUGUGUAGCAGCUTT against Slc25a29	active: -2.76
CCUUUAGUUUACAGUAAGCTT against H2-M10.1	inactive: -0.0364
GGCUUCAUAUUCUUUUCCCTT against Il31ra	inactive: -1.1
CCCUUAAUCUUGCAUACUUTT against Zbtb39	inactive: 0.338
GGGACAAUAACACUGUGUCTT against Slc11a1	inactive: -1.07
